Source: US11766470B2 (VectivBio AG, priority 2020, dated 2023)
Square brackets hold non-standard residues; d marks the D form. Ends that are not written are not given here. Nle = CCCC[C@H](N)C(=O)O

Assay: general procedure: Fmoc solid-phase peptide synthesis; Fmoc-Rink-amide-MBHA resin; DIC/oxyma
Conditions: whole synthesis, sodium salt

## HGDGSFSDE[Nle][dF]TILDLLAARDFINWLIQTKITD-NH2
RP-HPLC
  final purity (method not given): no less than 97%
RP-HPLC, run 1
  final HPLC purity: ≥97%
RP-HPLC, run 2
  final HPLC purity: no less than 95%
  difficulty met: variability in levels of D-His impurity between 0.3%-1.2%, sometimes with incomplete coupling
Run 1
  isolated yield: 15% to 22%
Run 2
  isolated yield: about 20%
Run 3
  isolated yield: about 22%
